The record followed here is paper PMC3846882.

Amino acid sequences for entries named in this document (tags omitted).
UniProt Q15046: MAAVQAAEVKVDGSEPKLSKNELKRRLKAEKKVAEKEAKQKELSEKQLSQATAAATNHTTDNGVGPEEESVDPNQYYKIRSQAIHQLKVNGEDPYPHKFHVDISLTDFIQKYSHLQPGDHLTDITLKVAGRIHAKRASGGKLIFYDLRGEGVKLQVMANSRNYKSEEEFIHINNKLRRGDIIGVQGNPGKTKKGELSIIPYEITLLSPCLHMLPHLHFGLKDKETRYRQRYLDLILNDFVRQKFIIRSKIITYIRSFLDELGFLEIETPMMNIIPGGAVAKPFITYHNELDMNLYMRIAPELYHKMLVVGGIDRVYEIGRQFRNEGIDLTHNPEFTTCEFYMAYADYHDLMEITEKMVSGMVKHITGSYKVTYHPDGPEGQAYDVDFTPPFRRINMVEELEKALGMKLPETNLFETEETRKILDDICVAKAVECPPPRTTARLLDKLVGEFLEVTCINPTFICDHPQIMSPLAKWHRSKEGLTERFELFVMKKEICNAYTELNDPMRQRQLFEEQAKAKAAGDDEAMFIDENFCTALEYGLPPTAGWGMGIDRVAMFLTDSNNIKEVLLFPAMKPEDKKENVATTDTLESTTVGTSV
UniProt Q13885: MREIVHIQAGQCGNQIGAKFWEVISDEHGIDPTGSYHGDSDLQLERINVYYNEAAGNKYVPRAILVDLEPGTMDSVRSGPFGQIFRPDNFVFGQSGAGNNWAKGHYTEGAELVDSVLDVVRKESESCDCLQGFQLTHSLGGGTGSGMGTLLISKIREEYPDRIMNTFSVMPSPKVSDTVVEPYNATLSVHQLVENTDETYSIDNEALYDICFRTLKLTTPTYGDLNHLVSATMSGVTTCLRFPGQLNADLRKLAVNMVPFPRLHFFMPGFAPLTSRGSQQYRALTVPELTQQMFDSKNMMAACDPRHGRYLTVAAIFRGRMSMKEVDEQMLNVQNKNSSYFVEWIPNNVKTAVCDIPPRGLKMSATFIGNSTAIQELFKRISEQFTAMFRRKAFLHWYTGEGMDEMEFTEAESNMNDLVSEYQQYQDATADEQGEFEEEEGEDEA
UniProt Q13509: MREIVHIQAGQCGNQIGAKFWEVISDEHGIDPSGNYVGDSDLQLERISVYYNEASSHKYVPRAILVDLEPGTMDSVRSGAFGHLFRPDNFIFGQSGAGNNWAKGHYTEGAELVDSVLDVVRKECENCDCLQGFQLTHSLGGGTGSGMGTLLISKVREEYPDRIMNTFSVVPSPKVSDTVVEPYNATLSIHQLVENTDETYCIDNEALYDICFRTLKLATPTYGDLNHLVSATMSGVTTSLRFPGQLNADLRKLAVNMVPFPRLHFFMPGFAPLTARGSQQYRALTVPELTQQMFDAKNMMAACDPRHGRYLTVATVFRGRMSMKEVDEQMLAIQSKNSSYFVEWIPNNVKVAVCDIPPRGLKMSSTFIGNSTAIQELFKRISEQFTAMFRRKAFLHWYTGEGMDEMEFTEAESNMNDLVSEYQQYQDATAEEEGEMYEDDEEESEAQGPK
UniProt O95816: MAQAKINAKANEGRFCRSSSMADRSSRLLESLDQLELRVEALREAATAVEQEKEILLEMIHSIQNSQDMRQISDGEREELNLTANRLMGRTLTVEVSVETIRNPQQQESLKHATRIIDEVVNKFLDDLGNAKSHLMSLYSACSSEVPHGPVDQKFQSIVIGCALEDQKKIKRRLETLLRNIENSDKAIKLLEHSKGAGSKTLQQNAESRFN
UniProt P42224: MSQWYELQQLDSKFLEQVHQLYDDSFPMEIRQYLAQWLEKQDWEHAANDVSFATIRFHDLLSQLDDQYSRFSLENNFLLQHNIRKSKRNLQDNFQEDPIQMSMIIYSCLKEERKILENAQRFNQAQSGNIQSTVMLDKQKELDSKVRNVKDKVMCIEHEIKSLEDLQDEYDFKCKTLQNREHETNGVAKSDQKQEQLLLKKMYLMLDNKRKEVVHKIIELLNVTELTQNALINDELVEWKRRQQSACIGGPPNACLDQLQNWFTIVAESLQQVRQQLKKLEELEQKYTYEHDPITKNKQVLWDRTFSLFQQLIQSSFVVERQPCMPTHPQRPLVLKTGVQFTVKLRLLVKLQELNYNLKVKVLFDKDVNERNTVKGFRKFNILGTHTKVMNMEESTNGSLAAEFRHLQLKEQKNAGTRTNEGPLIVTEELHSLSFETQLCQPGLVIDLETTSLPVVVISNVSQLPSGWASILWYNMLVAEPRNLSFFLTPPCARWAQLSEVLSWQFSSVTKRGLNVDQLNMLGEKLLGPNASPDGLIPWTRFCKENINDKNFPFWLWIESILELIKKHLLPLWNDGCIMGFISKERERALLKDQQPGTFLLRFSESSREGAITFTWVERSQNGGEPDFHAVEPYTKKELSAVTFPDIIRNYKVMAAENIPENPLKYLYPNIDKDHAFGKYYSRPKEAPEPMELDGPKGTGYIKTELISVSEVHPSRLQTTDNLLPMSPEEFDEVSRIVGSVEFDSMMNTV
UniProt P04350: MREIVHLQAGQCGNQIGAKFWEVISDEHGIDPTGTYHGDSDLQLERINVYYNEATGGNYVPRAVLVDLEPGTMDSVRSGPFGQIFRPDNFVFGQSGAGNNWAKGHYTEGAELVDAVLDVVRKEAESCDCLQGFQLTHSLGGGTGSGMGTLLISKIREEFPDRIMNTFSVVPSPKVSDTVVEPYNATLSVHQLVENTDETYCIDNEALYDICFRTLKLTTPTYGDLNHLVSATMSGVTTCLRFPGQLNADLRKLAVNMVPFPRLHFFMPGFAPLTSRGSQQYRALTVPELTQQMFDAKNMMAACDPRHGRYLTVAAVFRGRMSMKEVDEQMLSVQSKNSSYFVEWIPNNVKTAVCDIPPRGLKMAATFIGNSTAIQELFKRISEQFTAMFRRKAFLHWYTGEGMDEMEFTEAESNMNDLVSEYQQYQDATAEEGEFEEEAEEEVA
UniProt P09493: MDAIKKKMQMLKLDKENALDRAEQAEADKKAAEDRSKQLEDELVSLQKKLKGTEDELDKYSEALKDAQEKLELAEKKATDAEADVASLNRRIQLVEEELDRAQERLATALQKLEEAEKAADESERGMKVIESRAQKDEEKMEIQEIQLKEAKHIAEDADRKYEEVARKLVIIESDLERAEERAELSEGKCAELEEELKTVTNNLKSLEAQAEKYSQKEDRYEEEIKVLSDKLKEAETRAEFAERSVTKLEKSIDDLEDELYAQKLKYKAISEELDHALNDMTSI
UniProt O00560: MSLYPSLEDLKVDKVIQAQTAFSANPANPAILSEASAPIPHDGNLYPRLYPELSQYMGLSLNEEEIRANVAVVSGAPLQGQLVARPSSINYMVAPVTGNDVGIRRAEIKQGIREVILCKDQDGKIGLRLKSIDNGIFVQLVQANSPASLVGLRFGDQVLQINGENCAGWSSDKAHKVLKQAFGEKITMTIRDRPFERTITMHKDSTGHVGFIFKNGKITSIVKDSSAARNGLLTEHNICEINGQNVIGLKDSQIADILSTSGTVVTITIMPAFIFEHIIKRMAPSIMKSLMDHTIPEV
UniProt P08238: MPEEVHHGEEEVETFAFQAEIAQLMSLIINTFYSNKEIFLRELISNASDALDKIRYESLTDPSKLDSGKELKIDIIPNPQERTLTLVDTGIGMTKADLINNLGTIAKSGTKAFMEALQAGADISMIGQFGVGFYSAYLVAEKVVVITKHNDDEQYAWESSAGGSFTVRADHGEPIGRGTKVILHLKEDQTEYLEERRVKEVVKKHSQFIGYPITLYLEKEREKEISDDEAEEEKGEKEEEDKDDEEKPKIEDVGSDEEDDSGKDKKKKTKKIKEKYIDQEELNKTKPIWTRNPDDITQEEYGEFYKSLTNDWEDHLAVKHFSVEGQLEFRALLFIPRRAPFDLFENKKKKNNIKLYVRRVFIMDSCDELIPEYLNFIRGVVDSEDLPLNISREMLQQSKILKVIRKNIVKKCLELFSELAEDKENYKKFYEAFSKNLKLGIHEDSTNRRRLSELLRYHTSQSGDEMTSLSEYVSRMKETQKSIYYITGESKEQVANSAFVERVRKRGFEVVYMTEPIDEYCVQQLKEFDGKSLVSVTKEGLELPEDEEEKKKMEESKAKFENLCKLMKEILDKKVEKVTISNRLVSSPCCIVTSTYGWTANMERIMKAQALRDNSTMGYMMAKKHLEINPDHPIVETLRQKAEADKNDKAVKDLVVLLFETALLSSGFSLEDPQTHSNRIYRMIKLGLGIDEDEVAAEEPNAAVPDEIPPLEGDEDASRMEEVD
UniProt P07814: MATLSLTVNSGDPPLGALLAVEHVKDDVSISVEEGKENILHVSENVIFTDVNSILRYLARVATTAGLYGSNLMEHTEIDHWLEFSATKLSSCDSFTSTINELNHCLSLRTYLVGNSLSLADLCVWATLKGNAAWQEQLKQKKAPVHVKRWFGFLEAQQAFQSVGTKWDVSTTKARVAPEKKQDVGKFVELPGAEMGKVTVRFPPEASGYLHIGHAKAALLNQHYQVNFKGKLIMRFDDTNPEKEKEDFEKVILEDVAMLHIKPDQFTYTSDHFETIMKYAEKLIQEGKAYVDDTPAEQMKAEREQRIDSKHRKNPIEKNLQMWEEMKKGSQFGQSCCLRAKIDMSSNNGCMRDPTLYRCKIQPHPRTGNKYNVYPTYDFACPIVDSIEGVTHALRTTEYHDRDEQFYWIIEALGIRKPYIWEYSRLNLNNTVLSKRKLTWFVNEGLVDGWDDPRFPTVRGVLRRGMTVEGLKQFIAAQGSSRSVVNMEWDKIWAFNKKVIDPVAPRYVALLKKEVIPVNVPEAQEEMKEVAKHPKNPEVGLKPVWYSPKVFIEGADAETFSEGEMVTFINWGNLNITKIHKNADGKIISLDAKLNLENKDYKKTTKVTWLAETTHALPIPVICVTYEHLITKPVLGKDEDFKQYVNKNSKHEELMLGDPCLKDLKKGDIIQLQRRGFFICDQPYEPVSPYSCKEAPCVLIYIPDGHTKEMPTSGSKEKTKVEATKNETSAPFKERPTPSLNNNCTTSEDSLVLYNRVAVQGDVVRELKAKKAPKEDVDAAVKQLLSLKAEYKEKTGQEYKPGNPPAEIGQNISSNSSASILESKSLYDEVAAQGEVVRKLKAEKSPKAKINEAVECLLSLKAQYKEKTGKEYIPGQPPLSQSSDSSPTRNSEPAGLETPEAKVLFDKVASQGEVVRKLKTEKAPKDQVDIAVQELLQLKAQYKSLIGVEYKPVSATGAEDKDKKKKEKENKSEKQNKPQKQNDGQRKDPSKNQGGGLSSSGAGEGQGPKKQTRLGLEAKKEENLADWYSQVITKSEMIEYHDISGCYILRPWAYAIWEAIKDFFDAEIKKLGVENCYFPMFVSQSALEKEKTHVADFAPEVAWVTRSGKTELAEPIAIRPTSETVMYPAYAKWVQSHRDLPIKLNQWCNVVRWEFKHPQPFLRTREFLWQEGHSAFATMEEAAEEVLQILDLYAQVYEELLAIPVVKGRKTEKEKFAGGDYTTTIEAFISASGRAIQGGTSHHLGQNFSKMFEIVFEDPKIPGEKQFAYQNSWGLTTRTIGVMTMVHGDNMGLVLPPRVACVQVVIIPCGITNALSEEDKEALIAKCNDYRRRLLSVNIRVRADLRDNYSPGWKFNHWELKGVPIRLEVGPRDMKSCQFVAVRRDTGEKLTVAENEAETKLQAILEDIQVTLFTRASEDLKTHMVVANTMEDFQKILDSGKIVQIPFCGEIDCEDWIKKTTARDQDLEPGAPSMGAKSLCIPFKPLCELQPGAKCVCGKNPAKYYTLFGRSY
UniProt P68104: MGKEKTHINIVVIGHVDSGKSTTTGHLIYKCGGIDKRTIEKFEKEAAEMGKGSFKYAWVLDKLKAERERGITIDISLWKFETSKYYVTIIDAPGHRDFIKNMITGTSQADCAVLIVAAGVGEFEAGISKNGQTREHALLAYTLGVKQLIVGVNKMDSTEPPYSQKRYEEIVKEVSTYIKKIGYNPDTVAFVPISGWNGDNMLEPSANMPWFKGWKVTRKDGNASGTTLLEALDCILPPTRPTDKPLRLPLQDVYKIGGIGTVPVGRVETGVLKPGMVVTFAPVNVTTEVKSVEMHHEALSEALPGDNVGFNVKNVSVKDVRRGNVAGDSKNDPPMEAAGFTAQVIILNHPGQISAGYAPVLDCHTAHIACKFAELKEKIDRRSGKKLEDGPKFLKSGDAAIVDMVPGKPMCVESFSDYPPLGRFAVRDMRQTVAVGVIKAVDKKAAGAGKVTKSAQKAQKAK

Experiment in all cases: affinity purification with mass spectrometry; S/FLAG/SBP-tagged bait transiently expressed in HEK 293T and HCT-8 cells; 2 mg lysate protein in NETN buffer (20 mM Tris-HCl pH 7.4, 1 mM EDTA, 150 mM NaCl, 0.5% Nonidet P-40) on streptavidin agarose, 2 h, 4 °C; eluted with biotin; in-gel digestion, LC-MS/MS; SAINT probability 0.9 or above against a mock vector with the tag only; three biological replicates

One assay deals with T1, S/FLAG/SBP tagged AIMP2 (UniProt Q13155).
T1 sequence: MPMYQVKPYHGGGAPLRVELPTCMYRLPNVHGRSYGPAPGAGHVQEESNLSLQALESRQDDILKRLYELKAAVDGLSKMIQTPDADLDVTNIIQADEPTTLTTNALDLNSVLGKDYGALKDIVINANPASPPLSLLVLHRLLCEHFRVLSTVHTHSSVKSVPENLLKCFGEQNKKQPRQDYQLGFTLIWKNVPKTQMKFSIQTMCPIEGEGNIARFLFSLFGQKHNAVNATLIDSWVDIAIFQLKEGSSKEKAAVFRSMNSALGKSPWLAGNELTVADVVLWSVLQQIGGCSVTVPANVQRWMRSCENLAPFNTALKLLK

A further assay addresses S/FLAG/SBP tagged KARS (UniProt Q15046).
For the next assay, the target named is T2, S/FLAG/SBP tagged AIMP1 (UniProt Q12904).
T2 sequence: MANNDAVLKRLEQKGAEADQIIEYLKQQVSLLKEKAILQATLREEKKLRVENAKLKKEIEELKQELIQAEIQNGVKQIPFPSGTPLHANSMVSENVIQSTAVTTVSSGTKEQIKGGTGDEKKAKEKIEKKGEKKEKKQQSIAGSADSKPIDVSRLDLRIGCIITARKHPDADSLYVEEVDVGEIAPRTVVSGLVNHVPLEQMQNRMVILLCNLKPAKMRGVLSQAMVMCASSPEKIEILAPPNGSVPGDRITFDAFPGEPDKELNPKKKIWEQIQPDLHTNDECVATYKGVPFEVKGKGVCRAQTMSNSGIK

No constants are given. Whether binding was seen depends on the method and setting. In cells and extracts the contact can be indirect. These calls come from enrichment with a bait or labelling near it, and not all partners need be listed. For some assays here: Where a sequence is shown, tags or fusion partners need not be part of it.

For the substance TUBB2C (from UniProt P68371 1-445), the binding entry with S/FLAG/SBP tagged AIMP2 is “binds”.

On to DNAJA (human (endogenous in HEK 293T)), for which the binding entry with S/FLAG/SBP tagged AIMP2 is “binds”. Still for that read-out and setting: next, TUBB2A (from UniProt Q13885 1-445): “binds”; HSP90AA1 (from UniProt P07900 1-732): “binds”. On to TUBB3 (from UniProt Q13509 1-450), for which, in the assay with S/FLAG/SBP tagged AIMP2, the binding result is “binds”. The same measure, in the same setting: the same measure for ATP1A (human (endogenous in HEK 293T)): “binds”; for “BAG family molecular chaperone regulator 2 (from UniProt O95816 1-211)”: “binds”. In the case of “signal transducers and activators of transcription 1 (from UniProt P42224 1-750)”, in the assay with S/FLAG/SBP tagged KARS, the binding result was “binds”. Turning to “ATP citrate lyase (from UniProt P53396 1-1101) (enzyme)”, the binding entry with S/FLAG/SBP tagged KARS is “binds”.

Consider TUBB6 (from UniProt Q9BUF5 1-446), for which the binding entry with S/FLAG/SBP tagged AIMP2 is “binds”.

As to TUBB4 (from UniProt P04350 1-444), in the assay with S/FLAG/SBP tagged AIMP2, the binding entry is listed as “binds”.

Consider “tropomyosin alpha-1 chain (from UniProt P09493 1-284)”, for which the binding result with S/FLAG/SBP tagged KARS is “binds”. In the case of “TUBBP5 (human (endogenous in HEK 293T or HCT-8))”, the binding entry in the assay with S/FLAG/SBP tagged AIMP2 was “binds”. “Fanconi anemia complementation group I (from UniProt Q9NVI1 1-1328)”: in the assay with S/FLAG/SBP tagged AIMP2, the binding entry was “binds”. On to syntenin-1 (from UniProt O00560 1-298), for which, in the assay with S/FLAG/SBP tagged KARS, the binding result is listed as “binds”. For HSP90AB1 (from UniProt P08238 1-724), the binding result in the assay with S/FLAG/SBP tagged AIMP2 is “binds”. As to “Bifunctional aminoacyl-tRNA synthetase (glutamyl-prolyl-tRNA synthetase) (from UniProt P07814 1-1512) (enzyme)”, the binding entry with S/FLAG/SBP tagged KARS, in the assay with S/FLAG/SBP tagged AIMP2 and in the assay with S/FLAG/SBP tagged AIMP1 was “binds” each time. As to “elongation factor 1-alpha 1 (from UniProt P68104 1-462)”, the binding entry in the assay with S/FLAG/SBP tagged KARS is listed as “binds”.
